Results as given in PubChem BioAssay AID1487 (National Center for Advancing Translational Sciences (NCATS), 2009).
Hit rate of the full screen: of about 200,000 compounds, about 25 (0.01%) were called active. These results got no clear call from the source, so the numbers are uncertain. Calls come from the whole dose curve; as a rule, active = well fitted inhibition curve with a large enough effect in the signal ratio, with a control signal flat (not every such curve was filed as active); inconclusive = small, poorly fitted or top-dose-only effect, or effect the other way, or a change in a side signal; inactive = flat fitted curve, though single readings scatter; the % refers to the signal ratio.

experiment: qHTS Assay for Modulators of Lamin A Splicing; conditions: HeLa LMNA splicing GFP/RFP minigene ratio, 48 h
Potency is the fitted concentration of half-maximal effect.

Compound	Potency
O=[N+]([O-])c1cccc([N+](=O)[O-])c1	inconclusive: 0.562 µM
CCOC(=O)c1ccc(NP(C)(=O)Oc2cc(C)cc(C)c2)cc1 (stereo not drawn)	inconclusive: 0.0045 µM
CP(=O)(Nc1ccc(SC(F)(F)F)cc1)Oc1ccccc1 (stereo not drawn)	inconclusive: 15.8 µM
Cc1cccc(C)c1OP(C)(=O)Nc1ccc(SC(F)(F)F)cc1 (stereo not drawn)	inconclusive: 35.5 µM
CCOC(=O)c1ccc(NP(C)(=O)Oc2ccccc2)cc1 (stereo not drawn)	inconclusive: 5.01 µM
CC(C)(C)c1ccc(OP(C)(=O)Nc2ccc(SC(F)(F)F)cc2)cc1 (stereo not drawn)	inconclusive: 10 µM
CP(=O)(Nc1ccc(Cl)cc1Cl)Oc1ccccc1 (stereo not drawn)	inconclusive: 2.24 µM
Cc1cc(C)cc(OP(C)(=O)Nc2cccc(C(F)(F)F)c2)c1 (stereo not drawn)	inconclusive: 20 µM
O=[N+]([O-])c1cc([N+](=O)[O-])c(Nc2ccccn2)c([N+](=O)[O-])c1	inconclusive: 11.2 µM
COc1ccc(OP(C)(=O)Nc2ccc(Br)cc2)cc1 (stereo not drawn)	inconclusive: 17.8 µM
C/C1=C2N=C(/C=C3N=C(/C(C)=C4\[N-][C@@](C)([C@H]5N=C1[C@@](C)(CCC(=O)NC[C@H](C)OP(=O)([O-])O[C@@H]1[C@H](O)[C@H](n6cnc7cc(C)c(C)cc76)O[C@@H]1CO)[C@@H]5CC(N)=O)[C@](C)(CC(N)=O)[C@H]4CCC(N)=O)[C@@](C)(CC(N)=O)[C@@H]\3CCC(N)=O)C(C)(C)[C@@H]/2CCC(N)=O.[C-]#N.[Co+3]	inconclusive: 0.0708 µM
CC(C)c1ccc(OP(C)(=O)Nc2ccc(SC(F)(F)F)cc2)cc1 (stereo not drawn)	inconclusive: 35.5 µM
COc1ccc(OP(C)(=O)Nc2ccc(SC(F)(F)F)cc2)cc1 (stereo not drawn)	inconclusive: 20 µM
